This note sets out measurements from PubChem BioAssay AID2284379 (EPA ToxCast).

This assay in a line: ATG_M_32_EcoTox2: Attagene TRANS-FACTORIAL EcoTox-2 HepG2 Assay for M32 Transcription Factor (Internal Marker). The protocol:
ATG_EcoTox2 is a cell-based, multiplexed assay created by modifying the existing Attagene TRANS-FACTORIAL system to include a panel of nuclear receptors from some or all the following species: human (Homo sapiens), african clawed frog (Xenopus laevis), rainbow trout (Oncorhynchus mykiss), japanese medaka (Oryzias latipes), and zebrafish (Danio rerio). The ECOTOX2-FACTORIAL format uses HepG2, a human liver cell line, with measurements taken at 24 hours after chemical dosing in a 24-well plate. ATG_M_32_EcoTox2 is one of 29 assay components calculated in the ATG_EcoTox2 assay. It is designed to make measurements of mRNA induction, a form of inducible reporter, as detected with fluorescence intensity signals by Reverse transcription polymerase chain reaction (RT-PCR) and Capillary electrophoresis technology.The assay endpoint ATG_M_32_EcoTox2 was analyzed in the positive analysis fitting direction relative to DMSO as the negative control and baseline of activity. Using a type of inducible reporter, measures of mRNA for gain-of-signal activity can be used to understand the background control at the transcription factor-level as they relate to the gene. Furthermore, this assay endpoint can be referred to as a secondary readout, because this assay has produced multiple assay endpoints where this one serves a background control function. […]

The list shows a part of the results, in another mix than the full data. Records with an inconclusive call do not appear. The source made the active and inactive calls. The calls were made as follows: active = hit-call score of the fitted dose curve at least 0.9, where 1 is the maximum; inconclusive = response in the unintended direction; inactive = score below 0.9.

On to `C[C@]12C=CC(=O)C=C1CC[C@@H]1[C@@H]2C(=O)C[C@@]2(C)[C@H]1CC[C@]2(O)C(=O)CO`, for which the outcome was inactive.
